For 44 compounds, AC50 results are on record in PubChem BioAssay AID662 (National Center for Advancing Translational Sciences (NCATS), 2007).

Each structure is given as a SMILES string. Some of the results follow. Further columns of the screen follow, without active or inactive calls. Compounds called inactive in the main read-out are mostly missing here. Words in brackets tell the shape of the fitted curve; partial curves, single points and poor fits give uncertain potencies.

This assay is described as follows: Cell signaling CRE-BLA (Fsk stim). The note with it: CHO CRE-bla reporter (cAMP response element driving beta-lactamase), forskolin EC10, beta-lactamase ratio; measured here: 460 nm blue channel. The method in brief: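 Reporter-gene assay: CHO cells with beta-lactamase behind cAMP responsive elements, co-treated with compound and EC10 NKH 477 for 3 hours at 37 degrees Celsius. Activity came from the 460/530 nm CCF4 emission ratio.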
For `O=C(C1CCCN1S(=O)(=O)c1ccc(Cl)c(Cl)c1)N1CCCCC1` (centres undefined), the half-maximal activity concentration (AC50) (commonly the concentration at which the activity in the assay is half-maximal) is 0.00631 µM [falling, full curve]. The result for `CCCOc1ccc(OC(=O)c2ccc(Br)o2)cc1` reads 0.0126 µM [falling, full curve]; that for `CCOC(=O)CSc1nnc(CNC(=O)Cc2ccccc2)n1C`, 10 µM [rising, partial curve]. The result for `c1ccc(Nc2nc3ccccc3n3cnnc23)cc1` reads 10 µM [rising, single point]; that for `COc1ccccc1NC(=O)Nn1cnnc1`, 5.01 µM [falling, full curve, poor fit]. Turning to `CCc1ccc(NC(=O)CSc2nnc(-c3cnccn3)n2Cc2ccco2)cc1`, the AC50 was 12.6 µM [falling, partial curve].

As to `COC(=O)c1cccc(NC(=O)NC2CCCN2S(=O)(=O)c2ccc(Cl)cc2)c1` (centres undefined), the AC50 was 0.01 µM [falling, full curve]. The value for `Cc1cccc(S(=O)(=O)C(C#N)c2nc3ccccc3nc2N2CC(C)OC(C)C2)c1` (centres undefined) was 10 µM [rising, partial curve]. Take `Cc1ccc(S(=O)(=O)N2CCCN(S(=O)(=O)c3ccc(C)cc3)CC2)cc1`: the AC50 was 7.94 µM [rising, partial curve]. In the case of `CCCCCCC(=O)N(O)C1CC(=O)N(c2ccccc2)C1=O` (centres undefined), the AC50 is 3.16 µM [falling, partial curve, poor fit].

As to `CCOc1ccc(C2C(C(=O)c3ccco3)=C(O)C(=O)N2Cc2cccnc2)cc1OC` (centres undefined), the AC50 was 20 µM [falling, single point]. The result for `COc1cccc(Cn2c(=O)c(-c3cn(C)c4ccccc34)nc3cnc(N4CCNCC4)nc32)c1` reads 5.01 µM [rising, partial curve]; that for `COc1ccc(NC(=O)[C@@H]2[C@@H]3C(=O)N(C4CCCCC4)C(=O)[C@@H]3C3c4ccccc4C=CN32)cc1` (some centres undefined), 1.26 µM [falling, full curve].

Consider `Cc1cc2c(nn1)CCc1nonc1-2`, for which the AC50 was 3.16 µM [rising, full curve]. Regarding `Cn1nc(C(=O)Nc2c(-c3ccccc3)nc3sccn23)c2ccccc2c1=O`, the AC50 is 3.16 µM [rising, full curve].

With `C=CCn1c2ccccc2c2nnc(SCCCn3c(=O)[nH]c4ccccc43)nc21`, the AC50 was 1.58 µM [rising, partial curve]. As for `COc1cccc(CNC(=O)C2CCN(C(=O)N(C)C)CC2)c1`, the AC50 is 5.01 µM [falling, single point]. As for `Cc1nc2cnc(Oc3cccc(Cl)c3)nc2n(C2CC2)c1=O`, the half-maximal activity concentration (AC50) was 25.1 µM [rising, single point]. With `COc1cccc(-c2nn(C)c3sc(C(=O)N4CCN(c5ccccc5)CC4)cc23)c1`, the half-maximal activity concentration (AC50) is 2.51 µM [rising, full curve]. Consider `Nc1cc(N)nc(SCc2cc(=O)oc3cc4c(cc23)CCC4)n1`, for which the AC50 is 10 µM [rising, partial curve].

Consider `Cc1ccc2c(COC(=O)c3n[nH]c4ccccc34)cc(=O)oc2c1`, for which the half-maximal activity concentration (AC50) was 10 µM [rising, single point].

In the case of `Cc1nn(CCc2nn[nH]n2)c2nc(C(F)(F)F)cc(C(F)(F)F)c12`, the AC50 was 10 µM [rising, partial curve]. The value for `COc1ccc2nc(N3CCCC3)c(C#N)cc2c1` was 10 µM [rising, partial curve].

With `CCOC(=O)CSc1nc(N)nc(C)c1Br`, the half-maximal activity concentration (AC50) was 0.316 µM [rising, full curve, poor fit]. The result for `O=C(O)c1cc(S(=O)(=O)Nc2ccc3oc(=O)sc3c2)ccc1O` reads 1 µM [rising, partial curve]; that for `COc1ccc(S(=O)(=O)N2CCN(CCO)CC2)cc1-c1nnc2c3ccccc3c(C)nn12`, 12.6 µM [rising, single point]. For the compound `CCc1ccc(C2=Nn3c(nnc3-c3cccs3)SC2)cc1`, the half-maximal activity concentration (AC50) is 7.94 µM [rising, partial curve].

For the compound `COc1cc(CC(=O)Nc2nccs2)cc(OC)c1OC`, the concentration at half-maximal activity (AC50) was 0.126 µM [falling, single point]. For the compound `Cc1ccc(C(O)c2nccn2C)o1` (centres undefined), the half-maximal activity concentration (AC50) is 12.6 µM [falling, partial curve].

For the compound `O=C(NCc1ccco1)c1c2c(nc3ccccc13)CCC2`, the AC50 was 0.631 µM [falling, full curve, poor fit]. As for `COC(=O)c1ccc(CSc2ncn[nH]2)o1`, the AC50 is 1.26 µM [rising, full curve]. As to `CCNc1ncc2nc(CCc3ccccc3)c(=O)n(CCOC)c2n1`, the half-maximal activity concentration (AC50) was 12.6 µM [rising, partial curve]. The value for `COc1cc(-c2nnc(SCC#CCO)o2)cc(OC)c1OC` was 10 µM [rising, single point]; that for `CCN(c1ccccc1)c1nc2ccsc2c(=O)s1` was 0.00398 µM [falling, full curve, poor fit]; that for `O=c1c2[nH]c3ccc(F)cc3c2ncn1CCCN1CCOCC1` was 25.1 µM [rising, single point]. Regarding `Cc1ccc(N(CC(=O)Nc2cccc(C)c2)S(=O)(=O)c2cccc3nonc23)cc1`, the AC50 is 15.8 µM [falling, partial curve]. In the case of `Cn1c(=O)c2c(ncn2C)n(C)c1=O`, the half-maximal activity concentration (AC50) was 15.8 µM [rising, partial curve, poor fit]. On to `CCOc1cc(-c2c(C)c(C)nc(N)c2C#N)ccc1O`, for which the AC50 is 10 µM [rising, partial curve]. As for `CCCN(Cc1cc2cc(C)ccc2[nH]c1=O)S(C)(=O)=O`, the AC50 is 5.01 µM [falling, single point]. Take `Cn1c(=O)c2c(SCC(=O)N3CCCc4ccccc43)nc(C3CC3)nc2n(C)c1=O`: the concentration at half-maximal activity (AC50) is 3.98 µM [rising, partial curve]. For the compound `O=C(O)CC(Cc1ccccc1)c1ccc2c(c1)OCO2` (centres undefined), the AC50 was 0.00316 µM [falling, full curve, poor fit]. For the compound `COc1ccc(N2CCN(CCNC(=O)C3CCN(S(=O)(=O)c4cccs4)CC3)CC2)cc1`, the half-maximal activity concentration (AC50) is 0.0398 µM [falling, full curve, poor fit]. Turning to `O=C(NCCc1c[nH]c2ccccc12)C(F)(F)C(F)F`, the concentration at half-maximal activity (AC50) is 3.16 µM [falling, full curve]. The result for `CC(O)c1cccc(NC(=O)CCC(=O)O)c1` (centres undefined) reads 0.0158 µM [falling, full curve].
